Measurements published in PubChem BioAssay AID1347423 (Functional Genomics Laboratory (NCATS/FGL), 2020).
Out of some 52,000 sequences screened, about 210 (0.4%) were called active.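 The calls were made as follows: active = gene whose silencing raises cell survival under the drug, median off-target-corrected z-score across its silencing RNAs 2 or more; inactive = the rest.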 Some of the results follow.

Assay: Resistance to Poly (ADP-Ribose) Polymerase inhibitor: Gene Identification via Genome-wide siRNA Screen
Conditions: mouse BRCA2 R2336H ES cells, olaparib, CellTiter-Glo viability; active compounds read high
How it was run: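 Genome-wide siRNA screen (3 siRNAs/gene, 20 nM) in mouse ES cells carrying hypomorphic BRCA2 R2336H; olaparib 500 nM added 48 h post-transfection, CellTiter-Glo viability 72 h later. Normalized to plate-median negative control; MAD z-scores, gene median, seed-adjusted.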

| Sequence | z-score |
| --- | --- |
| CCAUCAUGCCCUGUUUGCATT against Cdc42ep3 | inactive: 0.371 |
| CCAUAUGGCUUAUCUUAUUTT against Adam5 | inactive: -0.215 |
| CCUAUGAACCCUAGGGUACTT against A230058J24Rik | inactive: -0.043 |
| GGUGGUGAUACGUACAGAATT against A2m | inactive: 1.18 |
| GGCAUCUUCGUCUUCAUGCTT against Rnf122 | inactive: -1.75 |
| GCUCUAAGUUUCCUCAUGGTT against Pkig | inactive: -0.952 |
| GGUCCUAUUUCGGAGCUUUTT against Tnfsf14 | inactive: -1.18 |
| GGAGGGUUUGCUUGAUGUUTT against 6430598A04Rik | inactive: -1.33 |
| GGUGGUGGCUCUCAACUUATT against A230020G22Rik | inactive: 1.28 |
| GCCUUGCAUGACAGUUGUCTT against 2210016L21Rik | inactive: -1.14 |
| GGGCAAGAACAACUCACUUTT against 4933404G15Rik | inactive: -1.42 |
| GGCACCGCUAUUCAGAAUUTT against Fgf23 | inactive: 0.09 |
| CACCAAGGUCUGAGUACCUTT against LOC434459 | inactive: 0.257 |
| GCCGCUUUAAGAUUCCCACTT against Pde1b | inactive: 0.362 |
| GGUACAGUAUGUGAUUCAATT against Bre | inactive: 0.743 |
| GCUACAGUUACUUAAAUGATT against 4921508O11Rik | inactive: -0.463 |
| CGCAGAACCCUGGUUUCUATT against D030016E14Rik | inactive: -0.495 |
| CGGAUGCCAUGCAGAACUATT against Tm4sf2 | inactive: -1.3 |
| CGGAUGCACUUCUCCAAAATT against Tram1 | inactive: 1.11 |
| GGCAAAAGCGAAGAAUUUATT against E2f5 | inactive: 0.522 |
| CCAUUAUGUCGAUUCUAUCTT against Ndph | inactive: -0.686 |
| GGUACUGGAGCAAUUGGCATT against Bpil2 | inactive: -0.121 |
| CCUCCACUUACUUUGGGUGTT against Cic | active: 1.48 |
| CGUUCAUGUUGUAAGUAUCTT against Olfr1196 | inactive: 0.144 |
| GGCCCUCAUCUUCAACAAGTT against BC036333 | inactive: 0.891 |
| CCCAAAUCUGGUUCUCAAGTT against A630001O12Rik | inactive: 0.504 |

| Sequence | z-score |
| --- | --- |
| GGACUGUACAGUGGCAUUATT against Tnfsf7 | inactive: -0.292 |
| GGGAACGUACAUUUCUCAATT against Il18r1 | inactive: 0.84 |
| GGGAUUUGAGCAUCUUUCCTT against 2610040E16Rik | inactive: 0.798 |
| GGAGUUGGGUCAUCUUCGATT against C530028I08Rik | inactive: -1.02 |
| GGAAAUAUGUGUCCGCACUTT against Mfap2 | inactive: -0.336 |
| CCAUGUUAUAUGAUAAGGGTT against 2410016O06Rik | inactive: -0.442 |
| GGACCAAUAAAUCCUGAUATT against Gzmm | inactive: -0.669 |
| GCCAAUGAAAGAGACGUAGTT against 6430514L14Rik | inactive: -0.303 |
| GGCCACCUAUAUGCUGAAGTT against Ngef | inactive: 1.11 |
| GCCUGGAGAAGUGAACUCUTT against Tll1 | inactive: -0.227 |
| GCUCCCACGAUAUAGCCACTT against Gm839 | inactive: 0.651 |
| GGAUAUACCAACCUACAAATT against Plxnc1 | inactive: -0.44 |
| GGAGAAGUUUGAAGAGAUGTT against Cct5 | inactive: -0.951 |
| CCUGACUCCGAUUUUGAGUTT against Elp3 | inactive: -0.0744 |
| CGCAUUCUACGCCUUUAUGTT against Wbp11 | inactive: 1.29 |
| CCGUGUUCUUAUGGGUUUUTT against Fgf13 | inactive: -1.39 |
| GCUCUCUUAUUGUGAACCUTT against Olfr1168 | inactive: 0.0677 |
| CCCUGUCAUCAUUGAUGGGTT against Dhrs6 | inactive: -0.31 |
| CCUUAAUGAUGAUCCUAUATT against Neu3 | inactive: 1.7 |
| GGCUUCGGAUAUGGCUACATT against Krtap16-4 | inactive: -0.768 |
| GCUCUUUACCCAUCACUAATT against 8030463A06Rik | inactive: -0.258 |
| GGCAGAGGAAAUUCUGGAGTT against Rpl11 | inactive: -2.9 |
| GGAAUCGGUACUCUUCCACTT against Tcerg1l | inactive: -0.398 |
| CCCAUUGGUAUACUUGGAUTT against 2210407C18Rik | inactive: 0.459 |
| GGGUGACUACAAAUACCUGTT against 4933426M11Rik | inactive: 0.117 |
| CCCUACGCUUCAUCAAGCUTT against Glp1r | inactive: 0.883 |

| Sequence | z-score |
| --- | --- |
| GGUCUACCUGGAGUAAUGCTT against Sp1 | inactive: -0.777 |
| GGUAUUCACACUGAAGCCCTT against H2-DMa | inactive: -0.295 |
| GGAUGAGAAAUACUUUCGGTT against C8a | inactive: 0.798 |
| GGCAUAUAUACAUACCUCCTT against Olfr1389 | inactive: -1.4 |
| GGUGUUUUUGUCCAGGUCATT against Kcnk3 | inactive: 0.324 |
| CCAUCAAGGGAGGUCCUUUTT against Renbp | inactive: -1.26 |
| ACCUUCAACACCAGUUUGGTT against Olfr1393 | inactive: -0.217 |
| GGCUGAGAUAAUCACAUUUTT against Dbhl1 | inactive: -1.14 |
| CGAGUGAGUAUUUUCUCUUTT against Gdf10 | inactive: 0.585 |
| GGAUGAAGAACUGAAAUCUTT against Unc13b | inactive: 1.51 |
| GGAAUAUGAGAGAAGCUCATT against Dpf2 | inactive: -1.17 |
| GCUAUAGUGCCAAAUUUGCTT against Alad | inactive: 1.43 |
| CCAAAUCCCAUCGAGUUCCTT against 2810410M20Rik | inactive: 0.562 |
| GGCCUGUGGUUAUGCUGUGTT against Cyp2b10 | inactive: 0.244 |
| GGUGUCCUAUAACCAAGCATT against Drpla | inactive: -0.211 |
| GGUAUAAGGUCAUAGAAUUTT against E230016K23Rik | inactive: 0.756 |
| CCAUAAGAAAGGAGACUAGTT against 9230117N10Rik | inactive: -2.11 |
| GGCCACGACUCUUUGUUUATT against Ush1g | inactive: -0.26 |
| GGUAUGUCCUCUGGUCAAUTT against Plunc | inactive: 0.447 |
| GCAGGUAUGUACCGUUUCUTT against Etos1 | inactive: -0.584 |
| GCUUGAAUCUAGCAGCUUUTT against Dvl1 | inactive: -0.211 |
| GGGCAUCUUUGCAUUCAAGTT against Frs3 | inactive: 0.333 |
| GGUGGAUGCCUUGAAUAUGTT against 1700029P11Rik | inactive: -0.0529 |
| GGAGAAAAUACAACUGUGATT against Ctrc | inactive: 0.985 |
| GGAACUAAUGAAACAGCUGTT against Abat | inactive: -1.34 |
| CCUUGCCAUAAGUGAUUUATT against Gpr74 | inactive: 0.588 |

| Sequence | z-score |
| --- | --- |
| GGAAAUCAUUAGCACCUAGTT against Sox13 | inactive: -0.555 |
| GGAAAUGUGACCACAAAGATT against Tas2r120 | inactive: -0.347 |
| GGGUUGCCUACUGCAUUAUTT against Cbx2 | inactive: -1.18 |
| GCUGCUACGUUCUUGUAAATT against Pmp2 | inactive: -0.271 |
| GCUGGAAUGCAAGGGCUUCTT against Gchfr | inactive: -0.978 |
| CGCUCCAUCCAAGAGUUCUTT against Gp1bb | inactive: -0.142 |
| GAUGUACGAGAGCUUAGCATT against 2900010M23Rik | inactive: -0.877 |
| GGUCGUUGCCAACAUUGCUTT against MGC74379 | inactive: 1.91 |
| GGAACCAUGAAAUAAAUGUTT against Acad8 | inactive: -1.01 |
| GGAACCUAUUGCUGUUUUATT against Map2k3 | inactive: 0.408 |
| GGAGGAGAGGUACAAGAUGTT against Pcyt2 | inactive: 0.205 |
| GCUAGAAUGUCUCAAUACUTT against 2600001J17Rik | inactive: -2.77 |
| GGGUUCUCUUGCCUACACATT against 2610020N02Rik | inactive: -1.72 |
| GGUUUUGAGUGAGAAAUGGTT against Plekhb2 | inactive: -0.303 |
| GGCAUUGGAAUAAAAUUUGTT against Rfk | inactive: 0.826 |
| GCAGAUGUAAAUAGCAAAATT against Apc | inactive: 0.747 |
| GGUUCAGAUGGGAAAAAGGTT against Khdrbs2 | inactive: -2 |
| CGUUUUUGUCUAGUUUGAATT against 2900006F19Rik | inactive: 0.426 |
| CCUUUUACUUAGACAUCCUTT against 6.33E+19 | inactive: 0.0895 |
| GGACUUCAAAGAUAACAACTT against Timm44 | inactive: -2.21 |
| GGCCAGUUUGACAUUCCUGTT against Mdh1b | inactive: 1.39 |
| GGACAUGUGUAAAUAAUCATT against En2 | inactive: -1.1 |
| CCCAUCUCCUCGAAUAAAUTT against Mtch1 | inactive: 1.47 |
| GGCAGAUGCUGAAACACUGTT against BC016423 | inactive: -1.31 |
| GCCUCACAACUCUUACACCTT against Ptprc | inactive: 0.888 |
| GGAAAGGAGAAGAGAAAUGTT against Scyl1 | inactive: 0.694 |

An excerpt of the results above, for reference:

| Sequence | z-score |
| --- | --- |
| GGUCCUAUUUCGGAGCUUUTT against Tnfsf14 | inactive: -1.18 |
| GGAGGGUUUGCUUGAUGUUTT against 6430598A04Rik | inactive: -1.33 |
| GGUGGUGGCUCUCAACUUATT against A230020G22Rik | inactive: 1.28 |
| GCCUUGCAUGACAGUUGUCTT against 2210016L21Rik | inactive: -1.14 |
| GGGCAAGAACAACUCACUUTT against 4933404G15Rik | inactive: -1.42 |
| GGCACCGCUAUUCAGAAUUTT against Fgf23 | inactive: 0.09 |
| CACCAAGGUCUGAGUACCUTT against LOC434459 | inactive: 0.257 |
